Measured values reported in publication doi:10.1101/054106.
Results are given in words; binding and its absence hold for the method and conditions named. Binding can be weak; no strength is given. Sequences can lack the tags named with a protein.

Sequences of proteins named here, by UniProt entry; tags and fusion partners are left off. A change or cut given only in a name is not applied to a line headed by its entry.
UniProt P23509: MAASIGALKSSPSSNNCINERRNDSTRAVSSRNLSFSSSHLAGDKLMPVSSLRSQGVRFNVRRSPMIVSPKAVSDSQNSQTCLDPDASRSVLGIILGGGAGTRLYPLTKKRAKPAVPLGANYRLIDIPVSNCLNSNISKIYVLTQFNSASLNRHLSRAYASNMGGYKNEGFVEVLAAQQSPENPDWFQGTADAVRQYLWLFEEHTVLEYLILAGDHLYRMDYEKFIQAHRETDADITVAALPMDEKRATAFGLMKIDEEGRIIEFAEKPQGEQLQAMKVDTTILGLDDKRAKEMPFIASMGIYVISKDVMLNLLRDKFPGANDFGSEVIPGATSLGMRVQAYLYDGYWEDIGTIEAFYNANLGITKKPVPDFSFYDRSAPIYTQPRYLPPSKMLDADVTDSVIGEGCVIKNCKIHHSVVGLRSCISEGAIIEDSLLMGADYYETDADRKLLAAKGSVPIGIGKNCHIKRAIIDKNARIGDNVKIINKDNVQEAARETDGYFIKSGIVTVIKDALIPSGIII

Target: potato ADP-glucose pyrophosphorylase (AGPase) small subunit, wild type (potato (S. tuberosum)) (UniProt P23509)
Assay: native gel or EMSA

B1: potato ADP-glucose pyrophosphorylase (AGPase) large subunit, wild type (enzyme, UniProt Q00081 1-470)
chain: NKIKPGVAYSVITTENDTQTVFVDMPRLERRRANPKDVAAVILGGGEGTKLFPLTSRTATPAVPVGGCYRLIDIPMSNCINSAINKIFVLTQYNSAPLNRHIARTYFGNGVSFGDGFVEVLAATQTPGEAGKKWFQGTADAVRKFIWVFEDAKNKNIENIVVLSGDHLYRMDYMELVQNHIDRNADITLSCAPAEDSRASDFGLVKIDSRGRVVQFAEKPKGFDLKAMQVDTTLVGLSPQDAKKSPYIASMGVYVFKTDVLLKLLKWSYPTSNDFGSEIIPAAIDDYNVQAYIFKDYWEDIGTIKSFYNASLALTQEFPEFQFYDPKTPFYTSPRFLPPTKIDNCKIKDAIISHGCFLRDCSVEHSIVGERSRLDCGVELKDTFMMGADYYQTESEIASLLAEGKVPIGIGENTKIRKCIIDKNAKIGKNVSIINKDGVQEADRPEEGFYIRSGIIIILEKATIRDGTVI
B1 was tested, and the binding was “binds”.
